In all, about 33,000 sequences were measured (“E-score (-0.5 to 0.5)”: median about -0.016, highest 2% from about 0.3 on). Some of the results follow.
Biological target: T1, Yer184c (UniProt P39961)
T1 sequence: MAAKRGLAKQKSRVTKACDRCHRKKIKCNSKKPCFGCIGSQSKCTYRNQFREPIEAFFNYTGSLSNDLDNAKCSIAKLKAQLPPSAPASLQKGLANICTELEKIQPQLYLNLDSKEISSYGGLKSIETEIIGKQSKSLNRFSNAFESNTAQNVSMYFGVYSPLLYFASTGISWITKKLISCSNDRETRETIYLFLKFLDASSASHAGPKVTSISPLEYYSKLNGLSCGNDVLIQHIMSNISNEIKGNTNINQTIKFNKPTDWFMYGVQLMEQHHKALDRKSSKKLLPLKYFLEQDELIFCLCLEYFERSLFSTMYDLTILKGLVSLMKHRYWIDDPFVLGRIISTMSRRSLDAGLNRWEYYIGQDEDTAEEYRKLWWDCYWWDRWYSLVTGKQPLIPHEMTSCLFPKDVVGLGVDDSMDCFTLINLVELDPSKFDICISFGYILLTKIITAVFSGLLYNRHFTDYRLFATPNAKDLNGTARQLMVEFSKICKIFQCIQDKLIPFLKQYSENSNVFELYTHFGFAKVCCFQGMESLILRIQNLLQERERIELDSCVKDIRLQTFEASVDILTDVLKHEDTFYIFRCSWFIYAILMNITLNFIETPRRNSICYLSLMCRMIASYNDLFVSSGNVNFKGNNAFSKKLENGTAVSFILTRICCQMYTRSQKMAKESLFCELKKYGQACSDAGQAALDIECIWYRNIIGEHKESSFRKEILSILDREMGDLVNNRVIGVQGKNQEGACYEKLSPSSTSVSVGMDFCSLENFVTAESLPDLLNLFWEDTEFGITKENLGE
Assay: PBM E-score (8-mer binding enrichment) (E-score (-0.5 to 0.5)); higher = stronger / more preferred TF binding
Details: protein concentration: 100 nM; construct: GST-full length
Outline: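 Each ungapped eight-base word and its reverse complement, pooled, received an E-score from the Universal PBM Analysis Suite. Underlying scans, normalised with masliner, recorded fluorescent anti-GST bound to GST-tagged yeast transcription factors. These were applied at about 100-200 nM to universal all-10-mer Agilent arrays double-stranded by primer extension.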

Sequence | PBM E-score
CCTGCCAC | -0.186
CTTTTCGC | 0.214
TCAAAACA | 0.191
ATGCTCTA | 0.0424
AATTTGTC | 0.11
TATAAGAA | 0.046
CGGGTGAG | 0.0538
GAATGAAA | 0.0589
CTTATAAG | 0.139
ACTAGATG | 0.0118
CGGTGTCA | -0.0203
ATGGTCTG | -0.127
CATTCGAA | 0.0417
ATTCGTTG | 0.173
GATGGGAC | -0.26
GATGTAAC | 0.0556
AAACGGGC | -0.00079
TCACTCAA | -0.153
GCTTACCC | -0.168
ATATTTCG | 0.318
AAGTATGC | -0.115
GCTTAATA | 0.00442
ATGCCGTC | 0.0209
TGCGTAAA | 0.0883

Reprinted from the listing (two entries):
Sequence | PBM E-score
AATTTGTC | 0.11
TATAAGAA | 0.046

Further entries follow:

Sequence | PBM E-score
ATGTCCAA | 0.0803
TATGCTCA | 0.0666
CCTTGCAA | -0.183
GCTGTGAA | -0.0809
ACGGGAGA | -0.0674
ATTCAAAC | 0.206
ACAGGTTA | -0.219
CCCAACCA | -0.118
AGTAGTCG | -0.0453
AGGAGTAC | -0.103
CACCATTC | -0.0855
ACCAATGA | -0.153
AATTTTAT | 0.379
AGTCCGAA | 0.343
ATAGTTGG | -0.182
CCCAAGGG | -0.433
GTGACGAA | 0.026
ACCGGGAC | 0.106
AATAAGAG | 0.237
CGGGCATC | -0.0827
GATAATAA | 0.0425
CGGAAGTA | 0.303
CCCCACCG | -0.053
GATATTGC | -0.0873

Sequence | PBM E-score
GCCGAAGC | 0.246
AGGTGCCG | 0.22
CCGTAGAG | 0.00453
CAGTAAGC | -0.0883
CGCTAAAC | 0.083
ATGCCCAG | -0.0127
GTTCACCA | 0.044
AATTCATC | -0.141
AGCCCCAG | -0.226
AATGAGCA | -0.00372
CGTTCTTC | 0.0785
GCGAAGAC | -0.145
GAAAACCC | -0.0764
ATACGTCA | -0.0448
AGCGGTCG | -0.28
ATGTTCTA | -0.0707
AAACTTGC | 0.0395
ACCTCCCA | -0.347
CCTTATTA | -0.00709
AAGGCATT | -0.159
CAGGACTC | -0.114
AAAGGTGT | -0.056
ACCCACTC | -0.165
CCCCAGAG | -0.334

Taken from above:
In PBM E-score, AGCCCCAG is entered as -0.226
In PBM E-score, ATGCCCAG is entered as -0.0127

Next results follow:

Sequence | PBM E-score
AATTGACT | 0.101
ACCAGCCA | -0.169
ATCGGCCA | 0.125
CACGTACC | -0.203
GACGACGC | -0.13
CGTGTCAC | 0.155
GACCAATA | -0.101
AGTGCCAT | -0.233
CCGCCCTC | -0.0585
GCACTAGC | -0.127
GGCTGCTA | -0.0683
CCGTCGGA | 0.148
CAAGTTTC | 0.088
ACCATGCT | -0.0829
CTAGCTGC | -0.261
GACTGACC | -0.267
ACCCACAA | 0.098
AGAGCAGC | -0.232
TCCATTCA | 0.0982
CAACTCGG | 0.0948
ACGGGTAC | -0.121
CTATTACC | -0.00629
